{"sequences": {"note": "Sequences of proteins named here, by UniProt entry; tags and fusion partners are left off. Residues count along the entry.", "UniProt P35222": "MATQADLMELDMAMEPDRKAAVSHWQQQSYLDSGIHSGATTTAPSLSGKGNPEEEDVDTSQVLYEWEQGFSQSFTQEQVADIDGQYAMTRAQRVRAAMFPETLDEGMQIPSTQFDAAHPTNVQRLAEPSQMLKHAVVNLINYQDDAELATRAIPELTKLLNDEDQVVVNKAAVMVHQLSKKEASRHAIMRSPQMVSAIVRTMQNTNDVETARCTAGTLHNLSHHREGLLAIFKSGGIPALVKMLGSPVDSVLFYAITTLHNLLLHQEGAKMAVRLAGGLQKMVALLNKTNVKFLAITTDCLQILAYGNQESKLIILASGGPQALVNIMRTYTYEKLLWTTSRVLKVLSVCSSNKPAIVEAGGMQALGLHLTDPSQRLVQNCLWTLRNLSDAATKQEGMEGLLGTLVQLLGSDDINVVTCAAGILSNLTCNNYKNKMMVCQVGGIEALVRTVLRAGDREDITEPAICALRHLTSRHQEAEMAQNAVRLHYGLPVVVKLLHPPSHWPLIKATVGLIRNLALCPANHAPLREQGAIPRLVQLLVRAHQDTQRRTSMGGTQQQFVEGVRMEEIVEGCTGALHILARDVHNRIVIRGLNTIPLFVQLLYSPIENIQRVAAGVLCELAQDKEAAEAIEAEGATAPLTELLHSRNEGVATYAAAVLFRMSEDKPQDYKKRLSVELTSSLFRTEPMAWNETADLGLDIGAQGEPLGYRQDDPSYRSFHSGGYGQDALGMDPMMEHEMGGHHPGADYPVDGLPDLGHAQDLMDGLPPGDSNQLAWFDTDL", "UniProt P07305": "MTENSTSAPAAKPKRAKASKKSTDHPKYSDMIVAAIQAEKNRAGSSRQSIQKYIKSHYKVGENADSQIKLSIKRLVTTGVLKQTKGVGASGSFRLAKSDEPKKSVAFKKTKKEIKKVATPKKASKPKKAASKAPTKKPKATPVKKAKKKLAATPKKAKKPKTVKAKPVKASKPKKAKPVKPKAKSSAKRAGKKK", "UniProt P56199, residues 29-1179": "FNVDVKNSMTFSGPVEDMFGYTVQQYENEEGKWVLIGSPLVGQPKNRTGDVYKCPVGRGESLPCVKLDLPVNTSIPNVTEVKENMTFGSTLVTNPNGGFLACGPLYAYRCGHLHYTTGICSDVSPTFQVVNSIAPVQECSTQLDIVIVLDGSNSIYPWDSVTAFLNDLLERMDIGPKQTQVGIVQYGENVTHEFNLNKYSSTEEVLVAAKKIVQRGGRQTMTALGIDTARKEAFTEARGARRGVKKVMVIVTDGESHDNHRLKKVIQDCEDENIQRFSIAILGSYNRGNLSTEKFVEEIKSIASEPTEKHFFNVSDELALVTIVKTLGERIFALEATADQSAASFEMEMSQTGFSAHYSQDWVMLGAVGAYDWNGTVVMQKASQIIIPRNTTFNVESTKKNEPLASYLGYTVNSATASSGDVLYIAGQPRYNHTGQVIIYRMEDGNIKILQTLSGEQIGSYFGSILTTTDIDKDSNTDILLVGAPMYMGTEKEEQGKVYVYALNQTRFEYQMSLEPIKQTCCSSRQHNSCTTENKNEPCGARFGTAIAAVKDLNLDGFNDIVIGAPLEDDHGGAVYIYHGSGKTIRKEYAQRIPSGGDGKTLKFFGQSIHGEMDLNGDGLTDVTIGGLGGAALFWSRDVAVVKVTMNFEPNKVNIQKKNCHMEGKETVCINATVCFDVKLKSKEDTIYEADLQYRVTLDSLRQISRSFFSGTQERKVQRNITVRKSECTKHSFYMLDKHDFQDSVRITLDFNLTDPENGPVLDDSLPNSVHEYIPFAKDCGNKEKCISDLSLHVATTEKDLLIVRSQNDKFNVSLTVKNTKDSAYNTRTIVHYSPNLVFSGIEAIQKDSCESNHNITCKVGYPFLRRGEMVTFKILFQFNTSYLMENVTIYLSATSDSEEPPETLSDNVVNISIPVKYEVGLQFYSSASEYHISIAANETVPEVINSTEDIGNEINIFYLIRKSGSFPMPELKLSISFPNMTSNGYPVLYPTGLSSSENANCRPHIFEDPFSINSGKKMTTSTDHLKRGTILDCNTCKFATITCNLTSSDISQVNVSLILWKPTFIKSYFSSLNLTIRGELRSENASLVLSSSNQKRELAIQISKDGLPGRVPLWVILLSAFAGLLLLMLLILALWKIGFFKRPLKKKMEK", "UniProt O14901": "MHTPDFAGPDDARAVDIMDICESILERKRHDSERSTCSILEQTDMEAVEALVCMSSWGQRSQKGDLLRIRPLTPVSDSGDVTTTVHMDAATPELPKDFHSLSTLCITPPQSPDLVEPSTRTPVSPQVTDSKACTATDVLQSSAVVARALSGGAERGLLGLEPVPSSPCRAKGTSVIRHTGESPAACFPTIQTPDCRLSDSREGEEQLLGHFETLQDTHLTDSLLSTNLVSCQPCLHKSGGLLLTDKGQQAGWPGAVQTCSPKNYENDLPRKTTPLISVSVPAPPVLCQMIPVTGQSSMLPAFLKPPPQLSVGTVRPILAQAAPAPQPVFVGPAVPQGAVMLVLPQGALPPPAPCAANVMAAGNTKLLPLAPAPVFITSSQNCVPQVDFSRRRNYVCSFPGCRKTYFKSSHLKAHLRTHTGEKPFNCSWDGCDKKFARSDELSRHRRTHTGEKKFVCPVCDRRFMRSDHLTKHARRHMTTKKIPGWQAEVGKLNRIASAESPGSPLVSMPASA", "UniProt P08727": "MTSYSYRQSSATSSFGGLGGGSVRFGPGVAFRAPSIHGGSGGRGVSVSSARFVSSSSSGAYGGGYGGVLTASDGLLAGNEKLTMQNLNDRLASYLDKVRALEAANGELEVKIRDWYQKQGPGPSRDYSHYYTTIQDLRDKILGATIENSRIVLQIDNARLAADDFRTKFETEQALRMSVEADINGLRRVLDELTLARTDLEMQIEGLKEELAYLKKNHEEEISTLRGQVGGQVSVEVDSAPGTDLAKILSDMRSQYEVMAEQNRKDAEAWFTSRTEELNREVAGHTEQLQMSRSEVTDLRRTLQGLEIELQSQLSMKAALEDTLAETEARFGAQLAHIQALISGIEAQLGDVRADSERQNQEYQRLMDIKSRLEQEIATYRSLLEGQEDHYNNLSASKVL", "UniProt Q9BXB1, residues 25-951": "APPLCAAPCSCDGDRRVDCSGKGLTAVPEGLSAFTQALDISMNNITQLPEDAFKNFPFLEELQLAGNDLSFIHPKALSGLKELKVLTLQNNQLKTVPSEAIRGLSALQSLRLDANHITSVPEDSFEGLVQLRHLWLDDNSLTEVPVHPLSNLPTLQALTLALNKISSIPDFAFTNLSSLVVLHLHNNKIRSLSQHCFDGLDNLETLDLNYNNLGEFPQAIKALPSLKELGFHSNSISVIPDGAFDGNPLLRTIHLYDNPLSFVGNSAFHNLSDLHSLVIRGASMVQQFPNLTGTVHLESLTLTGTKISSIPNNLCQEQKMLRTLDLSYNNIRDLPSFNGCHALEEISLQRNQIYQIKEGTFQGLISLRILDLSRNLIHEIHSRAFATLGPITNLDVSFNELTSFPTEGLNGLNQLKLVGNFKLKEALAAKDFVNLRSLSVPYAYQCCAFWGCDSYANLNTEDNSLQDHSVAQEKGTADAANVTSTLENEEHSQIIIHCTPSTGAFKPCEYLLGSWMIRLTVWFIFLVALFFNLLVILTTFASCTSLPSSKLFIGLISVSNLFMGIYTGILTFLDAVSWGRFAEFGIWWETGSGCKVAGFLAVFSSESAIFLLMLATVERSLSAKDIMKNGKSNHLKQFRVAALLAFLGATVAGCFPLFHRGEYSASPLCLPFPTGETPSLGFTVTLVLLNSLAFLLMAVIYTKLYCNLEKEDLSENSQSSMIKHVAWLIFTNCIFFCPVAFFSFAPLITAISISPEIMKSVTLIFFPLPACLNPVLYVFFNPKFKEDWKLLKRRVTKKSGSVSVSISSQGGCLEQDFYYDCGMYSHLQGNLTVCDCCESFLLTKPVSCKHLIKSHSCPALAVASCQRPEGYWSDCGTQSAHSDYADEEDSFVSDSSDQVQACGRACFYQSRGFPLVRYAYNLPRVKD", "UniProt Q5T5P2": "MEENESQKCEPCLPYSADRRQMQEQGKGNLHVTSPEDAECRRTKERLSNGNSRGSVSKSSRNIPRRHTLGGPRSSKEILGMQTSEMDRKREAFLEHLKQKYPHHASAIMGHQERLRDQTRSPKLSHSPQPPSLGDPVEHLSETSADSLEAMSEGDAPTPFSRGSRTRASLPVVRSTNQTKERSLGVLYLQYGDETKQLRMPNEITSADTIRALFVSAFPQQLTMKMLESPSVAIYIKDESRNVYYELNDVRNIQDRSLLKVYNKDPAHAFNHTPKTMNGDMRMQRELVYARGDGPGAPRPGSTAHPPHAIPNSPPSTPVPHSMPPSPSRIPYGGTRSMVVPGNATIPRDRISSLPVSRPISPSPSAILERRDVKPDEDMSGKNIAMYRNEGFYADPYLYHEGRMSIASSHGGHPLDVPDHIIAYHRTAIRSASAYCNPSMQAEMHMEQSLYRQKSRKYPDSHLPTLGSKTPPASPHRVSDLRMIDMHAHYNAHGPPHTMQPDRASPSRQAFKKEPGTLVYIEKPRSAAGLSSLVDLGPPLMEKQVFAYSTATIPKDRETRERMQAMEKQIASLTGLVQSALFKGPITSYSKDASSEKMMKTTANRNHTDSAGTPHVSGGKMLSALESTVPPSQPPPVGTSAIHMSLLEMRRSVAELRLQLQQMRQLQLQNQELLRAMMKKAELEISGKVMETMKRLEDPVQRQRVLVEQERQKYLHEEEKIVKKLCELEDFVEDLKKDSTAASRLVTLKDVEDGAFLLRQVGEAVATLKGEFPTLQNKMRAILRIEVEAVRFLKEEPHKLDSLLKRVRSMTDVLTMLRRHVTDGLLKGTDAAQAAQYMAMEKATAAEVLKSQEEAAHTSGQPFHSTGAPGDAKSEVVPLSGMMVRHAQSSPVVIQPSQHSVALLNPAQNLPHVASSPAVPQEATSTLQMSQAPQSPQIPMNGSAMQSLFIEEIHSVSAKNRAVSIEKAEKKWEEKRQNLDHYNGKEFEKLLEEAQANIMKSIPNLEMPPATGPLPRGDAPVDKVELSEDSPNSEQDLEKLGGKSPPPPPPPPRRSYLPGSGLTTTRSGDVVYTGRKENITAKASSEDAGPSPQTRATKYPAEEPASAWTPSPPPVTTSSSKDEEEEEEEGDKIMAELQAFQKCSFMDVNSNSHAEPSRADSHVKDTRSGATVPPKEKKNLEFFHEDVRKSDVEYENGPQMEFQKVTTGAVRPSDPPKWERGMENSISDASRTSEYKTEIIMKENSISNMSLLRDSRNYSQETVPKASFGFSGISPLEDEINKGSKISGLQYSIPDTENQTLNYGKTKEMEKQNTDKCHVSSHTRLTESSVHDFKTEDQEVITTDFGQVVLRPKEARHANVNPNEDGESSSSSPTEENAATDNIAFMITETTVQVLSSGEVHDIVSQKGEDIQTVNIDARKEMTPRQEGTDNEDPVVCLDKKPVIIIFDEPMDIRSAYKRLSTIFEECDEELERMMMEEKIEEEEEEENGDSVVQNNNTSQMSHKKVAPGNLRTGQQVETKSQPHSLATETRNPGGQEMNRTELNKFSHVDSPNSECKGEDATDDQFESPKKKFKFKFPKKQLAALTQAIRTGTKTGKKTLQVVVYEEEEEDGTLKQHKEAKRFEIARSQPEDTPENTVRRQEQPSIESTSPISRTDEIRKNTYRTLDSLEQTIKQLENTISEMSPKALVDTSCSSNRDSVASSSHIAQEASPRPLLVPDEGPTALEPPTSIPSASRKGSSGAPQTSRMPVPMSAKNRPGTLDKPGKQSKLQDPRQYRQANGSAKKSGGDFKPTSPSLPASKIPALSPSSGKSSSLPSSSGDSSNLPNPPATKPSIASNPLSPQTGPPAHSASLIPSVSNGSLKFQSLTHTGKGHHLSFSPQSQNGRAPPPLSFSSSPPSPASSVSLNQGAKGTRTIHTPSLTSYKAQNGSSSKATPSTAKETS"}, "source": "paper PMC10655684", "molecules": {"B1": {"name": "Plakophilin 2 (protein, UniProt Q99959 1-881)", "chain": "MAAPGAPAEYGYIRTVLGQQILGQLDSSSLALPSEAKLKLAGSSGRGGQTVKSLRIQEQVQQTLARKGRSSVGNGNLHRTSSVPEYVYNLHLVENDFVGGRSPVPKTYDMLKAGTTATYEGRWGRGTAQYSSQKSVEERSLRHPLRRLEISPDSSPERAHYTHSDYQYSQRSQAGHTLHHQESRRAALLVPPRYARSEIVGVSRAGTTSRQRHFDTYHRQYQHGSVSDTVFDSIPANPALLTYPRPGTSRSMGNLLEKENYLTAGLTVGQVRPLVPLQPVTQNRASRSSWHQSSFHSTRTLREAGPSVAVDSSGRRAHLTVGQAAAGGSGNLLTERSTFTDSQLGNADMEMTLERAVSMLEADHMLPSRISAAATFIQHECFQKSEARKRVNQLRGILKLLQLLKVQNEDVQRAVCGALRNLVFEDNDNKLEVAELNGVPRLLQVLKQTRDLETKKQITDHTVNLRSRNGWPGAVAHACNPSTLGGQGGRITRSGVRDQPDQHGLLWNLSSNDKLKNLMITEALLTLTENIIIPFSGWPEGDYPKANGLLDFDIFYNVTGCLRNMSSAGADGRKAMRRCDGLIDSLVHYVRGTIADYQPDDKATENCVCILHNLSYQLEAELPEKYSQNIYIQNRNIQTDNNKSIGCFGSRSRKVKEQYQDVPMPEEKSNPKGVEWLWHSIVIRMYLSLIAKSVRNYTQEASLGALQNLTAGSGPMPTSVAQTVVQKESGLQHTRKMLHVGDPSVKKTAISLLRNLSRNLSLQNEIAKETLPDLVSIIPDTVPSTDLLIETTASACYTLNNIIQNSYQNARDLLNTGGIQKIMAISAGDAYASNKASKAASVLLYSLWAHTELHHAYKKAQFKKTDFVNSRTAKAYHSLKD"}}, "biological_target": "β-catenin (human (endogenous in BGC-823)) (UniProt P35222)", "experiment": "affinity purification with mass spectrometry; Co-IP/MS: BGC-823 cells lysed in IP lysis buffer, anti-CTNNB1 antibody (1:50) at 4°C overnight, washed three times, SDS-PAGE, silver staining, gel strips analysed by LC-MS/MS; the table's caption speaks of nuclear fractions", "note": "Results are given in words; binding and its absence hold for the method and conditions named. In cells and extracts the contact can be indirect. A yes stands for co-enrichment or nearness to the bait. Other partners may have been found.", "data": [{"molecule": "Histone H1.0 (from UniProt P07305 1-194)", "values": [{"measurement": "binding", "value": "binds"}]}, {"molecule": "Integrin alpha-1 (from UniProt P56199 29-1179)", "values": [{"measurement": "binding", "value": "binds"}]}, {"molecule": "KLF Transcription Factor 11 (from UniProt O14901 1-512)", "values": [{"measurement": "binding", "value": "binds"}]}, {"molecule": "Keratin, type I cytoskeletal 19 (from UniProt P08727 1-400)", "values": [{"measurement": "binding", "value": "binds"}]}, {"molecule": "Leucine-rich repeat-containing G-protein coupled receptor 4 (from UniProt Q9BXB1 25-951)", "values": [{"measurement": "binding", "value": "binds"}]}, {"molecule": "Sickle tail protein homolog (from UniProt Q5T5P2 1-1943)", "values": [{"measurement": "binding", "value": "binds"}]}, {"molecule": "Tensin-3 (from UniProt Q68CZ2 1-1445)", "values": [{"measurement": "binding", "value": "binds"}]}, {"molecule": "Transcription initiation factor TFIID subunit 1 (from UniProt P21675 1-1893)", "values": [{"measurement": "binding", "value": "binds"}]}, {"molecule": "B1", "values": [{"measurement": "binding", "value": "binds"}]}]}
